These are yes or no findings as the source states them, for the method shown. In cells and extracts the contact can be indirect. Some results given as binding are weak or reduced against the parent protein; the word gives no strength.

Sequences of proteins named here, by UniProt entry; tags and fusion partners are left off.
UniProt Q62940: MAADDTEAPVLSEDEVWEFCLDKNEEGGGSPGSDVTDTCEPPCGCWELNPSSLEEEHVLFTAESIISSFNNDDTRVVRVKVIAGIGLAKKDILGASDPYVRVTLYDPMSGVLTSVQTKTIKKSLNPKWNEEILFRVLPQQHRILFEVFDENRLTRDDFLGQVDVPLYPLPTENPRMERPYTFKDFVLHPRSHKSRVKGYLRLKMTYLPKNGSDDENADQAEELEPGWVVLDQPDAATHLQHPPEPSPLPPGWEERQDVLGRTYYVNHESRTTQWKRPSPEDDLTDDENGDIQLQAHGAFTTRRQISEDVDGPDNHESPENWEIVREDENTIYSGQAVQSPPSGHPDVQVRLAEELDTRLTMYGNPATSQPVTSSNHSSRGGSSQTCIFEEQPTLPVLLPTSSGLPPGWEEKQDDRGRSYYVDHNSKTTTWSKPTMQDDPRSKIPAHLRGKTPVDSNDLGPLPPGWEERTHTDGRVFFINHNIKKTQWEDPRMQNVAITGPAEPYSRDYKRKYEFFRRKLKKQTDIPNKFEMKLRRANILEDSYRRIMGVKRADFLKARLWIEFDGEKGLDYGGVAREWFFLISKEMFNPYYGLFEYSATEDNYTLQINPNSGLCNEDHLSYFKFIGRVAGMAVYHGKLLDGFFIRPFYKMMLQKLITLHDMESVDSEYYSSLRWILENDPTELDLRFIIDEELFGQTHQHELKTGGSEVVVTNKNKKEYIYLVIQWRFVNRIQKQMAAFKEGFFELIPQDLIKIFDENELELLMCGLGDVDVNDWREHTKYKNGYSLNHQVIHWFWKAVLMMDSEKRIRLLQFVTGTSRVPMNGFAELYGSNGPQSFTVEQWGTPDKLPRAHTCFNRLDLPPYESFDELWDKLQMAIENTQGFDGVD

The assay has as its target T1, Nedd4 family interacting protein 1 (Ndfip1) (rat (endogenous in hippocampal CA1 tissue)) (UniProt Q5U2S1).
T1 sequence: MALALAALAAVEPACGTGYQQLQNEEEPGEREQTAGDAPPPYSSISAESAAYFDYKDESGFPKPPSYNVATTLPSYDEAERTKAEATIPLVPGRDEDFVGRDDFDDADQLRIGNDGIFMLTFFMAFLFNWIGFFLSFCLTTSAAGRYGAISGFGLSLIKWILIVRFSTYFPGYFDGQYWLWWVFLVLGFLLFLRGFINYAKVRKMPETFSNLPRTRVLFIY
In words: co-IP; rat CA1 tissue lysate (0.5 mg, RIPA lysis buffer) of non-trained and water-maze-trained rats, immunoprecipitated with anti-Ndfip1 antibody at 4°C overnight, protein A magnetic beads, immunoblotted with anti-Nedd4 and anti-Ndfip1; association decreased in trained rats.

Consider “Nedd4 (neural-precursor-cell-expressed developmentally down-regulated 4) E3 ubiquitin ligase (from UniProt Q62940 1-887)”, for which the binding entry is “binds”.

Values taken from paper PMC10079018.
